{"sequences": {"note": "By UniProt entry, the sequences of proteins in these tests, tags left out. Where a name states a change or a piece, a line headed by the entry shows the natural chain unless it says otherwise.", "UniProt P51450": "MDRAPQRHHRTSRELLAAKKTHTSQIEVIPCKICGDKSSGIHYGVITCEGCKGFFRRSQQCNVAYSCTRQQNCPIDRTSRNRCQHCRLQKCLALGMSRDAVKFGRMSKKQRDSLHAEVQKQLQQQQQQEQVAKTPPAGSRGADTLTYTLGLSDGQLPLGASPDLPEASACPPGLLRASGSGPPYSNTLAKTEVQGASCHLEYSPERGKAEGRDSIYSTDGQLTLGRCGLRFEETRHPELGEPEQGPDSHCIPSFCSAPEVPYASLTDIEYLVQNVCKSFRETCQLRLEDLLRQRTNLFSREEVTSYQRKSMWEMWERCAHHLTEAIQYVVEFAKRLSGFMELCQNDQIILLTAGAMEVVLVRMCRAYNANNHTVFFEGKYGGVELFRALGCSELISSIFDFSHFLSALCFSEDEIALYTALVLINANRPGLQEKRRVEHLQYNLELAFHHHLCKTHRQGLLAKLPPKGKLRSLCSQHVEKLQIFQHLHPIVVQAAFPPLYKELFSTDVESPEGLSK"}, "source": "PubChem BioAssay AID2551", "about": "(National Center for Advancing Translational Sciences (NCATS), 2010)", "note": "Out of some 310,000 compounds screened, about 17,000 (5.5%) were called active. Inconclusive results, whose numbers are uncertain, are shown with a selection of clear calls. Calls follow the shape of the dose curve; as a rule, active = well fitted inhibition curve with a large enough effect; inconclusive = small, poorly fitted or top-dose-only effect, or effect the other way; inactive = no such curve, though single readings can be large or run the other way. Potencies beside an inconclusive call are fits to weak or partial responses and may not hold up. Potency is read from the fitted curve at half-maximal effect.", "data": [{"molecular_target": "Nuclear receptor ROR-gamma (Mus musculus) (UniProt P51450)", "assay": "qHTS for inhibitors of ROR gamma transcriptional activity; also: nearly all actives have a fitted effect of over 60% in size", "conditions": "Drosophila S2 Gal4-RORgamma UAS-luciferase reporter, 20 h; series mostly up to 53.6 µM", "procedure,_shortened": "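In this cell-based reporter format, copper sulfate (700 uM final) drives Gal4–ROR gamma fusion expression from a metallothionein promoter in Drosophila Schneider cells; compounds preincubated 1 hr, reporter read after 20 hr at ambient temperature.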", "values": [{"smiles": "O=C(NNC(=O)c1cccc(C(F)(F)F)c1)c1ccncc1", "Potency": "inactive"}, {"smiles": "CC(=O)c1cccc(NC(=O)CSc2ccc(-c3sc(C)nc3C)nn2)c1", "Potency": "inactive"}, {"smiles": "Cc1ccc(-c2nnc(SCC(=O)CC(=O)Nc3ccccc3)n2-c2ccccc2)cc1", "Potency": "active: 3.55 µM"}, {"smiles": "CCOc1ccc(CN(C)CC(=O)Nc2cc(OC)c([N+](=O)[O-])cc2C)cc1", "Potency": "inconclusive: 1.12 µM [activator, full curve, poor fit]"}, {"smiles": "CCCCCc1ccc(C(=O)CCCC)c(=S)[nH]1", "Potency": "active: 2.51 µM"}, {"smiles": "CC(C)c1ccc2oc(=O)cc(CN3CCN(c4ccc(F)cc4)CC3)c2c1", "Potency": "inactive"}, {"smiles": "O=C(C1CCN(S(=O)(=O)c2cccnc2)CC1)N1CCN(c2ccc(Cl)cc2)CC1", "Potency": "inconclusive: 12.6 µM [activator, single point]"}, {"smiles": "Cc1ccc(CNC(=O)CCSCCC(=O)NCc2ccc(C)cc2)cc1", "Potency": "inconclusive: 4.47 µM [inhibitor, full curve, poor fit]"}, {"smiles": "COc1cc(C(=O)Nc2nnc(C)s2)cc(OC)c1OC", "Potency": "active: 7.08 µM"}, {"smiles": "CCc1ccc(NC(=S)Nc2ccc3[nH]c(=O)[nH]c3c2)cc1", "Potency": "active: 12.6 µM"}, {"smiles": "Cc1ccccc1COc1ccc(-c2nn[nH]n2)cc1", "Potency": "inconclusive: 12.6 µM [activator, partial curve]"}, {"smiles": "COC(=O)c1sc(NC(=O)c2ccoc2C)nc1C", "Potency": "inconclusive: 10 µM [activator, partial curve]"}, {"smiles": "O=S(=O)(c1ccc(NC(=S)N/N=C/c2ccc(N3CCOCC3)cc2)cc1)N1CCOCC1", "Potency": "inconclusive: 3.98 µM [inhibitor, partial curve, poor fit]"}, {"smiles": "COC(=O)C1=C(C)Nc2ncnn2C1c1ccc(C)o1", "note": "(stereo not given)", "Potency": "inactive"}, {"smiles": "CCCc1nnc(NC(=O)CNc2ccc(F)cc2)s1", "Potency": "inconclusive: 35.5 µM [inhibitor, single point]"}, {"smiles": "Cc1cc(Br)ccc1SCC(=O)N1CCN(S(=O)(=O)c2ccccc2)CC1", "Potency": "inconclusive: 15.8 µM [activator, partial curve]"}, {"smiles": "C/C(CC(=O)Nc1cccc(Br)c1)=N\\NC(=O)c1ccc(O)cc1O", "Potency": "active: 0.891 µM"}, {"smiles": "Cc1cccn2cc(CCNC(=O)c3ccc(Br)o3)nc12", "Potency": "inconclusive: 35.5 µM [activator, single point]"}, {"smiles": "O=C(c1cc(-n2cnnc2)ccc1Cl)N1CCN(c2nc(-c3ccccc3)cs2)CC1", "Potency": "inconclusive: 12.6 µM [inhibitor, partial curve, poor fit]"}, {"smiles": "O=C(NC(=S)NNC(=O)[C@H]1C[C@@H]1c1ccccc1)c1ccc(F)cc1", "Potency": "active: 10 µM"}, {"smiles": "COc1cc(S(=O)(=O)Nc2cccc(C)c2)ccc1N=Cc1c(C)[nH]n(-c2ccccc2)c1=O", "Potency": "inconclusive: 12.6 µM [activator, partial curve]"}, {"smiles": "CC(=O)Nc1cc(C(=O)N2CCc3ccccc3C2)ccc1Sc1ccc(C)cc1", "Potency": "inconclusive: 11.2 µM [activator, single point]"}, {"smiles": "O=C(NC(NCc1cccnc1)C(Cl)(Cl)Cl)c1cccc2ccccc12", "note": "(stereo not given)", "Potency": "inactive"}, {"smiles": "COc1cccc2c1OC(=O)CC2c1ccc(C)cc1", "note": "(stereo not given)", "Potency": "inactive"}, {"smiles": "COc1ccc(OCc2cc(C(=O)N3C[C@H]4CC[C@H]3C4)no2)c(Cl)c1", "Potency": "inconclusive: 12.6 µM [activator, partial curve]"}, {"smiles": "CN(C)c1ccc(/C=N/NC(=O)c2ccc(Cl)cc2)cc1", "Potency": "active: 8.91 µM"}, {"smiles": "CCOc1cccc2cc(-c3csc(NC(=O)CCC(=O)NCCN4CCCCC4C)n3)c(=O)oc12", "note": "(stereo not given)", "Potency": "inconclusive: 10 µM [inhibitor, partial curve, poor fit]"}, {"smiles": "CCC1(C)Cc2c(sc3c2c(=O)n(C)c2nnc(SCCc4ccccc4)n32)CO1", "note": "(stereo not given)", "Potency": "inactive"}, {"smiles": "O=C(NC1CC1)c1c[nH]c2ccc(S(=O)(=O)Nc3cccc(C(F)(F)F)c3)cc2c1=O", "Potency": "inconclusive: 7.08 µM [activator, full curve, poor fit]"}, {"smiles": "O=C(c1cc(-c2ccccn2)nc2ccccc12)N1CCN(c2ncccn2)CC1", "Potency": "inactive"}, {"smiles": "CCC(CC)NC(=O)c1ccc(NS(=O)(=O)c2ccc3[nH]c(=O)[nH]c3c2)cc1", "Potency": "inconclusive: 11.2 µM [inhibitor, single point]"}, {"smiles": "CC1CCCCN1CCCOC(=O)c1ccccc1", "note": "(stereo not given)", "Potency": "inactive"}, {"smiles": "Cc1[nH]n(-c2ccccc2)c(=O)c1N=Nc1ccccc1O", "Potency": "active: 2 µM"}, {"smiles": "O=C(Nc1cccc(C(F)(F)F)c1)c1cc(Br)cc(Br)c1O", "Potency": "active: 5.01 µM"}, {"smiles": "COc1cc2c3nnc(-c4ccc(F)cc4)c-3cn(Cc3ccccc3F)c2cc1OC", "Potency": "active: 6.31 µM"}, {"smiles": "CC(C)C(=O)Nc1nc(-c2ccccc2)ns1", "Potency": "inconclusive: 12.6 µM [activator, single point]"}, {"smiles": "CC(=O)c1ccc2c(c1)Nc1ccccc1S2", "Potency": "inactive"}, {"smiles": "Nc1ccc(C(=O)OCc2nc3c(ccc4ccccc43)[nH]2)cc1", "Potency": "inconclusive: 12.6 µM [activator, partial curve]"}, {"smiles": "COC(=O)c1c(N)sc(C(=O)NCCc2ccccc2)c1C", "Potency": "active: 2.51 µM"}, {"smiles": "COc1ccc(CCNC(=O)CSc2nc(N)c3c(C)c(C)oc3n2)cc1OC", "Potency": "inconclusive: 17.8 µM [activator, single point]"}, {"smiles": "O=C(NNc1ccc(Cl)nn1)c1ccc(Cl)cc1", "Potency": "inconclusive: 15.8 µM [inhibitor, single point]"}, {"smiles": "CCSc1nnc(NC(=O)CCc2ccccc2)s1", "Potency": "inconclusive: 1 µM [activator, partial curve, poor fit]"}, {"smiles": "COc1cc(NC(=S)NCC2CCCO2)c(OC)cc1Cl", "note": "(stereo not given)", "Potency": "active: 10 µM"}, {"smiles": "COn1c(-c2ccccc2)c(C=O)c2ccccc21", "Potency": "inconclusive: 15.8 µM [activator, single point]"}, {"smiles": "Clc1cccc(N/N=C/c2ccc(N3CCOCC3)s2)c1", "Potency": "inconclusive: 20 µM [inhibitor, single point]"}, {"smiles": "CN(C)c1ncc2nc(CCc3ccccc3)c(=O)n(C[C@H]3CCCO3)c2n1", "Potency": "inconclusive: 22.4 µM [activator, single point]"}, {"smiles": "COC(=O)c1ccccc1NC(=O)C1CC(c2ccccc2O)=NO1", "note": "(stereo not given)", "Potency": "active: 12.6 µM"}, {"smiles": "O=C(Nc1nnc(S(=O)(=O)N2CCN(c3ccc(F)cc3)CC2)s1)c1ccccc1", "Potency": "inconclusive: 1.78 µM [activator, partial curve]"}, {"smiles": "Cc1noc2ncnc(N3CCCCC3)c12", "Potency": "inactive"}, {"smiles": "Cc1ccc(N2C(=O)[C@@H]3[C@H](C2=O)[C@H]2C=CC=NN2[C@@H]3C(=O)Nc2ccccc2)cc1", "Potency": "inconclusive: 12.6 µM [inhibitor, partial curve]"}, {"smiles": "CNc1nnc(-c2ccc(N(C)C)cc2)s1", "Potency": "inconclusive: 15.8 µM [inhibitor, single point]"}, {"smiles": "c1csc(-c2nc3ccccn3c2NC2CCCCC2)c1", "Potency": "active: 10 µM"}, {"smiles": "O=C1SC(c2ccccc2)=C/C1=C\\N1CCCCC1", "Potency": "inactive"}, {"smiles": "O=c1[nH]c2ccccc2nc1-c1ccc(Cl)cc1", "Potency": "inconclusive: 1.12 µM [activator, single point]"}, {"smiles": "CC12CCC(C/C1=N\\N=C1\\NC(=O)/C(=C\\c3ccc(Cl)cc3)S1)C2(C)C", "note": "(stereo not given)", "Potency": "inconclusive: 8.91 µM [inhibitor, partial curve, poor fit]"}, {"smiles": "Cc1ccccc1CNC(=O)CN(c1ccccc1Cl)S(C)(=O)=O", "Potency": "inactive"}, {"smiles": "COc1cccc(/C=N/Nc2ncccc2[N+](=O)[O-])c1OC", "Potency": "active: 1.26 µM"}, {"smiles": "CCOCc1nnc(NC(=O)c2ccc(OC)cc2)s1", "Potency": "inconclusive: 20 µM [activator, partial curve]"}, {"smiles": "O=C(NCc1ccc(C(F)(F)F)cc1)C1CC(c2c(Cl)cccc2Cl)=NO1", "note": "(stereo not given)", "Potency": "inconclusive: 20 µM [activator, single point]"}, {"smiles": "CCn1nnc(-c2ccccc2NS(=O)(=O)c2ccc(S(=O)(=O)N3CCCCCC3)cc2)n1", "Potency": "inactive"}, {"smiles": "O=C(NCCO)c1cc([N+](=O)[O-])cc2c1C=Cc1ccccc1O2", "Potency": "inconclusive: 25.1 µM [inhibitor, single point]"}, {"smiles": "COc1cccc(NC(=O)Nc2ccccc2C(N)=O)c1", "Potency": "inactive"}, {"smiles": "Cc1cccc(/C(N)=N/OC(=O)c2ccc(Cl)cc2Cl)c1", "Potency": "active: 2 µM"}, {"smiles": "Cc1nc2c(c(=O)c3ccccc3n2C)c(=O)n1C1CCCCCC1", "Potency": "inactive"}, {"smiles": "COc1cc(CC(=O)Nc2ccc(S(=O)(=O)Nc3ncccn3)cc2)cc(OC)c1OC", "Potency": "inconclusive: 11.2 µM [inhibitor, single point]"}, {"smiles": "COC(=O)c1ccccc1NC(=S)NC(C)=O", "Potency": "inconclusive: 11.2 µM [inhibitor, single point]"}, {"smiles": "O=C(NC(=S)Nc1ccc(Oc2ccccc2)cc1)c1ccc(Cl)cc1", "Potency": "active: 8.91 µM"}, {"smiles": "O=[N+]([O-])c1ccc(N2CCOCC2)cc1NCCCO", "Potency": "inactive"}, {"smiles": "Cc1cc(NC(=O)COC(=O)[C@H](Cc2c[nH]c3ccccc23)NC(=O)c2ccc(F)cc2)no1", "Potency": "inconclusive: 3.16 µM [inhibitor, single point]"}, {"smiles": "COc1ccc(C(=O)NCC(=O)OCC(=O)c2ccc3c(c2)OCCO3)cc1", "Potency": "inconclusive: 35.5 µM [inhibitor, single point]"}, {"smiles": "COCCn1c(=O)c(-c2cccc(C#N)c2)nc2cnc(N3CCN(C)CC3)nc21", "Potency": "inactive"}, {"smiles": "Nn1c(-c2cccc([N+](=O)[O-])c2)nc2ccccc2c1=O", "Potency": "inactive"}, {"smiles": "O=c1c2ccccc2nc2c3ccccc3ncn12", "Potency": "inconclusive: 11.2 µM [inhibitor, partial curve, poor fit]"}, {"smiles": "O=C1C(Cl)=C(Nc2cccc(O)c2)C(=O)N1Cc1ccccc1", "Potency": "inconclusive: 11.2 µM [activator, single point]"}, {"smiles": "COc1ccc(C)cc1S(=O)(=O)NCC(c1cccnc1)N1CCc2ccccc2C1", "note": "(stereo not given)", "Potency": "inconclusive: 3.98 µM [activator, partial curve]"}]}]}
